Reference: PubChem BioAssay AID214 (DTP/NCI, 2004)
The list is a part of this screen's results and no random one: it gathers tests that were run many times, whatever their T/C, doses with no T/C, and many T/C values between a quarter and a half above the control. Further doses and runs are listed elsewhere. T/C: endpoint of the treated group in % of that of the vehicle group. Schedule codes are those of the source, taken here to give the interval after Q, in days (D) or hours (H), and the number of doses after X. Some T/C values carry the count of animals alive at the toxicity check (mostly the fifth day); without a count, all were alive then. Some entries hold several experiments; the values are given in rising order. Counts like (3×) count equal records among those shown. Some doses have a count of surviving animals in place of a T/C: the source holds a T/C of zero for them, seemingly a mark for toxic or unscored doses. Survivors were counted at the toxicity check, usually on the fifth day, unless a day is given; later deaths do not show.

System: B6C3F1 mice, colon carcinoma 38 s.c., T/C
Assay: NCI In Vivo Anticancer Drug Screen. Data for tumor model Colon Carcinoma 38 (subcutaneous) in B6C3F1 mice
Settings: T/C endpoint: median tumor weight (est.), schedule: Q07DX002 (ip), higher T/C = larger tumour; for T/C: evaluated on day 20
Description: The antitumor activity of compounds was measured in mice bearing transplantable tumors. Survival or tumor size were measured and the results are expressed as the measurement made in the treated group (T) divided by the measurement made in the vehicle treated control group (C). The tumor model used in this assay is Colon Carcinoma 38 (subcutaneous) in B6C3F1 mice

[1] = dose: 200.0 mg/kg/injection, vehicle: Klucel (hydroxypropylcellulose) (HPC)
[2] = dose: 400.0 mg/kg/injection, vehicle: Klucel (hydroxypropylcellulose) (HPC)
[3] = dose: 12.5 mg/kg/injection, vehicle: Klucel (hydroxypropylcellulose) (HPC)
[4] = dose: 100.0 mg/kg/injection, vehicle: Klucel (hydroxypropylcellulose) (HPC)
[5] = dose: 100.0 mg/kg/injection, vehicle: saline
[6] = dose: 800.0 mg/kg/injection, vehicle: Klucel (hydroxypropylcellulose) (HPC)

Question: With `Cc1cc(Nc2ccc3c(c2)OCO3)c2cc3c(cc2n1)OCO3` as the compound, how does the T/C (dose: 50.0 mg/kg/injection, vehicle: Klucel (hydroxypropylcellulose) (HPC)) read?
Answer: 136 % of control

Question: And the survivor count [1]?
Answer: 6 of 10 on day 20

Question: And the survivor count [2]?
Answer: 0 of 10 on day 20, 5 of 10 on day 20, 6 of 10 on day 20

Question: `Cc1cc(N/N=C/c2ccccn2)nc2ccccc12` was tested. Which survivor count [2] did it give?
Answer: 1 of 9 on day 20

Question: Which T/C [3] does the source give for `O=NN(CCF)C(=O)NC1CCCCC1` here?
Answer: 125 % of control

Question: And the survivor count [3]?
Answer: 6 of 10 on day 20

Question: What about the T/C (dose: 25.0 mg/kg/injection, vehicle: Klucel (hydroxypropylcellulose) (HPC)) of the same compound?
Answer: 125 % of control

Question: What about the survivor count [4] of the same compound?
Answer: 0 of 10 on day 20 and 2 of 10 on day 20

Question: With `O=c1c(O)c(-c2cc(O)c(O)c(O)c2)oc2cc(O)cc(O)c12` as the compound, how does the survivor count (dose: 1200.0 mg/kg/injection, vehicle: saline with Tween-80) read?
Answer: 0 of 10 on day 20

Question: What about the survivor count (dose: 1800.0 mg/kg/injection, vehicle: saline with Tween-80) of the same compound?
Answer: 1 of 10 on day 20

Question: Which T/C (dose: 6.25 mg/kg/injection, vehicle: water) does the source give for `Cn1c(=O)[nH]c2nncnc2c1=O` here?
Answer: 126 % of control

Question: What about the survivor count (dose: 100.0 mg/kg/injection, vehicle: water) of the same compound?
Answer: 1 of 10 on day 20

Question: What about the survivor count (dose: 150.0 mg/kg/injection, vehicle: water) of the same compound?
Answer: 3 of 10 on day 20

Question: What about the survivor count (dose: 300.0 mg/kg/injection, vehicle: water) of the same compound?
Answer: 0 of 10 on day 20

Question: What about the survivor count (dose: 600.0 mg/kg/injection, vehicle: water) of the same compound?
Answer: 0 of 10 on day 20

Question: What about the survivor count (dose: 1200.0 mg/kg/injection, vehicle: water) of the same compound?
Answer: 0 of 10 on day 20

Question: What does the source list for `Cc1ccc2nc(-c3ccc4nc(-c5ccc(N=Nc6ccc(-c7nc8ccc(-c9nc%10ccc(C)c(S(=O)(=O)O)c%10s9)cc8s7)cc6)cc5)sc4c3)sc2c1S(=O)(=O)O`?
Answer: T/C (dose: 25.0 mg/kg/injection, vehicle: saline): 134 % of control; survivor count (dose: 800.0 mg/kg/injection, vehicle: saline): 0 of 10 on day 20

Question: Which survivor count [5] does the source give for `CCOC(=O)C(N)C[S][Sn]([CH3])([CH3])[Cl]` (configuration not stated) here?
Answer: 0 of 10 on day 20

Question: For `OC(CBr)C(O)C(O)C(O)CBr` (configuration not stated), which T/C [4] is on record?
Answer: 53, 54, 58, 64, 66, 79 (2×), 91, 93 (2×), 120 % of control

Question: And the T/C [1]?
Answer: 30, 41, 44 (2×), 46, 49, 52, 53 [9 of 10 alive on day 20], 57, 79, 158 % of control

Question: What about the T/C [2] of the same compound?
Answer: 6, 7 [9 of 10 alive on day 20], 8 [9 of 10 alive on day 20], 19, 24, 28 [9 of 10 alive on day 20], 29, 33 (2×), 69, 81 % of control

Question: And the T/C [6]?
Answer: 40 % of control [7 of 10 alive on day 20]

Question: What about the survivor count [6] of the same compound?
Answer: 0 of 10 on day 20, 1 of 10 on day 20, 2 of 10 on day 20, 4 of 10 on day 20, 6 of 10 on day 20

Question: With `O=C(O)CSc1c(Cl)c(=O)oc2ccc(Cl)cc12` as the compound, how does the survivor count [2] read?
Answer: 2 of 10 on day 20

Question: What does the source list for `COc1ccc(C(=O)C(CN(C)C)CN(C)C)cc1`?
Answer: survivor count (dose: 50.0 mg/kg/injection, vehicle: saline): 1 of 10 on day 20; survivor count [5]: 0 of 10 on day 20
